# According to PMC8918322:
# Sequences of proteins named here, by UniProt entry; tags and fusion partners are left off.
# UniProt Q9HC98: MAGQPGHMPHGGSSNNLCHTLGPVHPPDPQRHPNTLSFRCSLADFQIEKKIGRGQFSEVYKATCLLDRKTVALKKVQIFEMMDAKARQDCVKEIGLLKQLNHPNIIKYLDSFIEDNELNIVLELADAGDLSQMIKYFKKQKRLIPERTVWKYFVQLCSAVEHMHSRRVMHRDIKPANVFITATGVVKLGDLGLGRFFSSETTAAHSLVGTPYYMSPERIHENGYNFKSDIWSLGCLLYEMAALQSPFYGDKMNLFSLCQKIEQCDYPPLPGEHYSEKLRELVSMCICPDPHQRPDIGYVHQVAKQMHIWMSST
# These are yes or no findings as the source states them, for the method shown. Binding seen in cells or lysates may run through a third protein. Some entries that bind do so weakly or less than the wild type.
# T1: Ubiquitin-specific peptidase 49 (USP49) (UniProt Q70CQ1)
# T1 sequence: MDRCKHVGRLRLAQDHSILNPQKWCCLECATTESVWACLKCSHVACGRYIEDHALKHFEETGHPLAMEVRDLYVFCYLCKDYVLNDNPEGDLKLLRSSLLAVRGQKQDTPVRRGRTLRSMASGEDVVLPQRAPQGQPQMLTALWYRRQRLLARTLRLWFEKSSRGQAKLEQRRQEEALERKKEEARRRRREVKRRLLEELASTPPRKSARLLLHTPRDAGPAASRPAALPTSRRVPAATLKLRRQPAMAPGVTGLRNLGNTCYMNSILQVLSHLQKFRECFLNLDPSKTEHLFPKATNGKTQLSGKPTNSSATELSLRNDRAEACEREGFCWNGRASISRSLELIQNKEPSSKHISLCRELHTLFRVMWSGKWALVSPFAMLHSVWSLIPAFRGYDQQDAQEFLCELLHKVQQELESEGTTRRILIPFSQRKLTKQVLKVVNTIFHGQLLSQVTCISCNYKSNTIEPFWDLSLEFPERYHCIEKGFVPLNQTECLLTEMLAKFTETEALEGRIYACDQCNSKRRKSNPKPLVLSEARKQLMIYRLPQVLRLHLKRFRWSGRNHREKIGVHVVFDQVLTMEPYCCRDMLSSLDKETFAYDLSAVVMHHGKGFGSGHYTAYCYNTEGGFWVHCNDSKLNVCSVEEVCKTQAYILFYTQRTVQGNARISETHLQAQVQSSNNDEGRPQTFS
# T2: USP49 del (UniProt Q70CQ1)
# T2 sequence: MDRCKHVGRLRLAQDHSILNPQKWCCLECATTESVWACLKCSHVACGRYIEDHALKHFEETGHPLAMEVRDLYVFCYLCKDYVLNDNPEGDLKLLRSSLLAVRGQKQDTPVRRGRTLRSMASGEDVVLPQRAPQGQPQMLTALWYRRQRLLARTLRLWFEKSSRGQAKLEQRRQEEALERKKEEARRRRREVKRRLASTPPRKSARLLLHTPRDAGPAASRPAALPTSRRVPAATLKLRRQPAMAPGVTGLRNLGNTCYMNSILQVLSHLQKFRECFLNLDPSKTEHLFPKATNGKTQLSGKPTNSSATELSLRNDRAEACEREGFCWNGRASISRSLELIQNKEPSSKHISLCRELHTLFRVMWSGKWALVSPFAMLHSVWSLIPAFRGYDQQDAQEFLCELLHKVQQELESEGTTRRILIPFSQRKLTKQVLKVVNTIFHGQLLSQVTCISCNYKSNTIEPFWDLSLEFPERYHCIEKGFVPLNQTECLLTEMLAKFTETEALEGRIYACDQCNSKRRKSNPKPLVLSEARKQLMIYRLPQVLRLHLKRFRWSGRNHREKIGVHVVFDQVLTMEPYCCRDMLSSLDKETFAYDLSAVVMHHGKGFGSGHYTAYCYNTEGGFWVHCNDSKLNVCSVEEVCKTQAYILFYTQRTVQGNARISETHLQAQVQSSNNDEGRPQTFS
# What was measured:
# [1] = target: T1, Ubiquitin-specific peptidase 49 (USP49); experiment: co-IP; Supplementary Fig. 4B; cells and tags not stated; the sentence does not name the method, the paper's only binding method is IP with HA/Flag tag magnetic beads from NP40 lysate
# USP49 del = target: T2, USP49 del; experiment: co-IP; Panc-1 and 293 T cells transfected with the indicated plasmids, 10 μM MG132 for 6 h before harvesting; NP40 lysate, 1-2 mg protein, HA/Flag tag magnetic beads, washed five times with TBST; immunoblot
# [2] = target: T1, Ubiquitin-specific peptidase 49 (USP49); experiment: as above
binding [1],binding (USP49 del),binding [2],Molecule
binds,–,–,NEK6 (from UniProt Q9HC98 1-313) (enzyme)
no binding,–,–,"NEK3 (enzyme, UniProt P51956 1-506) MDDYMVLRMIGEGSFGRALLVQHESSNQMFAMKEIRLPKSFSNTQNSRKEAVLLAKMKHPNIVAFKESFEAEGHLYIVMEYCDGGDLMQKIKQQKGKLFPEDMILNWFTQMCLGVNHIHKKRVLHRDIKSKNIFLTQNGKVKLGDFGSARLLSNPMAFACTYVGTPYYVPPEIWENLPYNNKSDIWSLGCILYELCTLKHPFQANSWKNLILKVCQGCISPLPSHYSYELQFLVKQMFKRNPSHRPSATTLLSRGIVARLVQKCLPPEIIMEYGEEVLEEIKNSKHNTPRKKTNPSRIRIALGNEASTVQEEEQDRKGSHTDLESINENLVESALRRVNREEKGNKSVHLRKASSPNLHRRQWEKNVPNTALTALENASILTSSLTAEDDRGGSVIKYSKNTTRKQWLKETPDTLLNILKNADLSLAFQTYTIYRPGSEGFLKGPLSEETEASDSVDGGHDSVILDPERLEPGLDEEDTDFEEEDDNPDWVSELKKRAGWQGLCDR"
–,binds,binds,"Fbxo45 (protein, UniProt P0C2W1 1-286) MAAPAPGAGAASGGAGCSGGGAGAGAGSGSGAAGAGGRLPSRVLELVFSYLELSELRSCALVCKHWYRCLHGDENSEVWRSLCARSLAEEALRTDILCNLPSYKAKIRAFQHAFSTNDCSRNVYIKKNGFTLHRNPIAQSTDGARTKIGFSEGRHAWEVWWEGPLGTVAVIGIATKRAPMQCQGYVALLGSDDQSWGWNLVDNNLLHNGEVNGSFPQCNNAPKYQIGERIRVILDMEDKTLAFERGYEFLGVAFRGLPKVCLYPAVSAVYGNTEVTLVYLGKPLDG"
